Test results published in PubChem BioAssay AID924 (National Center for Advancing Translational Sciences (NCATS), 2007).
Screen size: about 130,000 compounds; about 1,200 (0.92%) were called active. These results got no clear call from the source, so the numbers are uncertain. The call rests on the fitted dose curve; in most records, active means well fitted cell-killing curve with a large enough effect; inconclusive means small, poorly fitted or top-dose-only effect; inactive means no such curve, though single readings can be large or run the other way.

test: qHTS Screen for Compounds that Selectively Target Cancer Cells with p53 Mutations: Cytotoxicity of p53ts Cells at the Permissive Temperature; conditions: H1299-p53A138V at 32C, ATP luminescence viability, 24 h; further: nearly all actives have a fitted effect of over 55% in size
Potency means the concentration at half of the fitted maximal effect.

| Compound | Potency |
| --- | --- |
| CCOP(=O)(Cl)Cl | inconclusive: 5 nM |
| ClCCOP(OCCCl)OCCCl | inconclusive: 12.6 nM |
